Some of these results come from one statement about several compounds together. At least one structure is not confirmed: it was looked up by name or label, or the drawing left a doubt.
System: astrocyte-enriched cortical cell cultures
Assay: Effect of PAF antagonists on mc-PAF-, lyso-PAF- and AA-induced PGE2 release from astrocytes
Type: cell-based, rat
Conditions: at higher antagonist concentrations
Description: All experimental protocols were approved by the Massachusetts Institute of Technology institutional review committee and meet the guidelines of the National Institutes of Health. Dissociated astrocytes were cultured from cortices of postnatal day 1-2 rat pups (as described by K. D. McCarthy, et al., Preparation of separate astroglial and oligodendroglial cell cultures from rat cerebral tissue, J. Cell Biol. 85 (1980) 890-902, with minor modifications R. K. K. Lee, et al., Metabolic glutamate receptors increase amyloid precursor protein processing in astrocytes: inhibition by cyclic AMP, J. Neurochem. 68 (1997) 1830-1835.) In brief, cells from dissociated cortices were plated onto poly-L-lysine coated 35- or 100 mm culture dishes. The initial culture media, minimal essential medium (MEM, Gibco-Life Technologies; Rockville, Md.) containing 15% horse serum (BioWhittaker; Walkersville, Md.), were aspirated 2-5 h after plating to remove unattached cells and debris, and replaced with MEM containing 5% fetal bovine serum (FBS, BioWhittaker; Walkersville, Md.). Half the medium was replaced with MEM/5% FBS twice weekly. […]
PGE2 levels were measured by ELISA according to manufacturer's instructions (Cayman Chemicals, Ann Arbor, Mich.). […]

SMILES	attenuation of the mc-PAF-induced increase in PGE2
C[C@@H]1C(=O)O[C@H]2[C@H](O)[C@@]34[C@H]5C[C@@H](C(C)(C)C)[C@]36[C@@H](OC(=O)[C@@H]6O)O[C@@]4(C(=O)O5)[C@@]12O [BN 52021, ginkolide B]	20-25%
CCCCCCCCCCCCCCCCCCNC(=O)OCC(COC(=O)N(Cc1cccc[n+]1CC)C(C)=O)OC (centres unmarked) [CV 6209]	20-25%

Source: US20050032713A1, “Platelet-activating factor antagonists as analgesic, anti-inflammatory, uterine contraction inhibiting, and anti-tumor agents” (priority 2002, published 2005)
